Experimental data: patent US20200165319A1
These are yes or no findings as the source states them, for the method shown. Some binding calls cover weakened binding; strength is not graded here.

Molecular target: synthetic polypeptide … based on the human type III collagen Pro488 to Gly510 segment contained in TE16C (human)
Experiment: X-ray crystal structure (self-association, homotrimer)

binding: binds
B1: synthetic polypeptide … based on the human type III collagen Pro488 to Gly510 segment contained in TE16C (peptide)
peptide: GFRGPAGPNGIPGEKGPAGERG
